According to PubChem BioAssay AID504467 (National Center for Advancing Translational Sciences (NCATS), 2011):
In all, about 330,000 compounds went through this assay and about 7,700 (2.3%) were called active. The inconclusive results got no clear call from the source; some entries with a clear call stand among them for comparison. The call rests on the fitted dose curve; in most records, active means well fitted inhibition curve with a large enough effect; inconclusive means small, poorly fitted or top-dose-only effect, or effect the other way; inactive means flat fitted curve, though single readings scatter. Where the call is inconclusive, the potency comes from a doubtful curve fit.

Assay: qHTS screen for small molecules that inhibit ELG1-dependent DNA repair in human embryonic kidney (HEK293T) cells expressing luciferase-tagged ELG1; further: nearly all actives have a fitted effect of over 55% in size
Settings: HEK293T ELG1-luciferase reporter, luminescence, 16 h, DNA damage induced by 5-fluorouridine; series mostly up to 46.1 µM
Procedure, shortened: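 HEK293T cells expressing luciferase-tagged ELG1 (2,000/well) received 5-Fluorouridine plus compound or DMSO for 16 hr at 37 °C. Luciferase was read by ONE-Glo luminescence after 30 min at room temperature.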
Potency means the concentration at half of the fitted maximal effect.

Structure (SMILES)	Potency
C/C(N)=C(/C#N)C(=O)CSc1nc2ccccc2c(=O)n1-c1ccc(C)c(Cl)c1	active: 6.51 µM
O=c1c2cc(Cl)ccc2nc(-c2ccccc2)n1O	inactive
COc1ccc(N2C(=O)CSCC2=O)cc1OC	inactive
O=[N+]([O-])c1ccccc1S(=O)(=O)Oc1ccc(C(=S)N2CCOCC2)cc1	inconclusive: 29.1 µM [inhibitor, single point]
O=C(Nc1cc([N+](=O)[O-])ccc1N1CCCC1)c1cccs1	inconclusive: 32.6 µM [inhibitor, partial curve, poor fit]
COc1ccc(CCNC2CCC(c3ccccc3)CC2)cc1 (stereo not given)	inactive
CCOC(=O)c1csc(NC(=O)C2CCCCC2)n1	inconclusive: 23.1 µM [activator, partial curve]
CC(=O)c1cc(-c2ccccc2)n(CC(=O)Nc2cccc(C)c2)c1C	inactive
CC(C)N1C/C(=C/c2cccnc2)C(=O)/C(=C/c2cccnc2)C1	inconclusive: 16.4 µM [inhibitor, single point]
C=CCC[C@H](Cc1ccc(F)cc1)C(=O)OC[C@H](C)NC(=O)[C@H](CC=C)CC(=O)NCCO	inactive
COc1ccc(CCNC(=O)COc2ccc(S(=O)(=O)N3CCCC3)cc2)cc1	inconclusive: 29.1 µM [inhibitor, single point]
Cc1coc2c(C)c3oc(=O)c(CCC(=O)NCc4ccccn4)c(C)c3cc12	inconclusive: 11.6 µM [inhibitor, single point]
COc1cccc(CN=c2c([N+](=O)[O-])nn(-c3ccccc3C)n2O)c1	inconclusive: 25.9 µM [inhibitor, single point]
CCCOc1ccc2cc(C(=O)NCc3ccccc3)c(=O)oc2c1	inactive
CCC(SC1=N/C(=C/c2ccccc2OC)C(=O)N1c1ccccc1)C(=O)Nc1cc(C)on1 (stereo not given)	inconclusive: 25.9 µM [inhibitor, partial curve, poor fit]
Cc1cccc(N2CCN(CC(=O)Nc3ccccc3[N+](=O)[O-])CC2)c1C	inactive
CC(=O)c1sc(Nc2cccc(C)c2)nc1C	inconclusive: 29.1 µM [activator, single point]
O=C(CNC(=O)c1ccccc1Br)N/N=C/c1cc(Br)ccc1O	inconclusive: 4.11 µM [inhibitor, full curve]
CN(CC(=O)Nc1cccc(S(=O)(=O)NC2=NCCCCC2)c1)Cc1ccc(C(C)(C)C)cc1	inconclusive: 29.1 µM [inhibitor, single point]
CC(OC(=O)Cc1ccc(F)cc1)C(=O)N1CCc2ccccc21 (stereo not given)	inconclusive: 29.1 µM [activator, single point]

Quoted at random: 2 compounds from above
Structure (SMILES)	Potency
COc1cccc(CN=c2c([N+](=O)[O-])nn(-c3ccccc3C)n2O)c1	inconclusive: 25.9 µM [inhibitor, single point]
CCOC(=O)c1csc(NC(=O)C2CCCCC2)n1	inconclusive: 23.1 µM [activator, partial curve]
